Assay results as given in article PMC12546133.
Results are given in words; binding and its absence hold for the method and conditions named. In cells and extracts the contact can be indirect. Some results given as binding are weak or reduced against the parent protein; the word gives no strength.

Amino acid sequences for entries named in this document (tags omitted).
UniProt P62898: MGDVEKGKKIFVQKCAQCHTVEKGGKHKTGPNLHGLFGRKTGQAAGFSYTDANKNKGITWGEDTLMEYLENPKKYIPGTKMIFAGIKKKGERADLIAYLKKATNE

How the values were obtained:
[1] = biological target: T1, apoptotic protease activating factor 1 (Apaf1) (rat (endogenous in H9c2)) (UniProt Q9EPV5); assay: co-IP; H9c2 cell extracts; anti-Apaf1 or anti-Cycs antibody fixed on protein A/G magnetic beads, blots for Cycs and Apaf1; cells untreated, treated with L-NAME, with siRNA against Apaf1 or Cycs, with Apaf1 overexpression, with TQ
T1 sequence: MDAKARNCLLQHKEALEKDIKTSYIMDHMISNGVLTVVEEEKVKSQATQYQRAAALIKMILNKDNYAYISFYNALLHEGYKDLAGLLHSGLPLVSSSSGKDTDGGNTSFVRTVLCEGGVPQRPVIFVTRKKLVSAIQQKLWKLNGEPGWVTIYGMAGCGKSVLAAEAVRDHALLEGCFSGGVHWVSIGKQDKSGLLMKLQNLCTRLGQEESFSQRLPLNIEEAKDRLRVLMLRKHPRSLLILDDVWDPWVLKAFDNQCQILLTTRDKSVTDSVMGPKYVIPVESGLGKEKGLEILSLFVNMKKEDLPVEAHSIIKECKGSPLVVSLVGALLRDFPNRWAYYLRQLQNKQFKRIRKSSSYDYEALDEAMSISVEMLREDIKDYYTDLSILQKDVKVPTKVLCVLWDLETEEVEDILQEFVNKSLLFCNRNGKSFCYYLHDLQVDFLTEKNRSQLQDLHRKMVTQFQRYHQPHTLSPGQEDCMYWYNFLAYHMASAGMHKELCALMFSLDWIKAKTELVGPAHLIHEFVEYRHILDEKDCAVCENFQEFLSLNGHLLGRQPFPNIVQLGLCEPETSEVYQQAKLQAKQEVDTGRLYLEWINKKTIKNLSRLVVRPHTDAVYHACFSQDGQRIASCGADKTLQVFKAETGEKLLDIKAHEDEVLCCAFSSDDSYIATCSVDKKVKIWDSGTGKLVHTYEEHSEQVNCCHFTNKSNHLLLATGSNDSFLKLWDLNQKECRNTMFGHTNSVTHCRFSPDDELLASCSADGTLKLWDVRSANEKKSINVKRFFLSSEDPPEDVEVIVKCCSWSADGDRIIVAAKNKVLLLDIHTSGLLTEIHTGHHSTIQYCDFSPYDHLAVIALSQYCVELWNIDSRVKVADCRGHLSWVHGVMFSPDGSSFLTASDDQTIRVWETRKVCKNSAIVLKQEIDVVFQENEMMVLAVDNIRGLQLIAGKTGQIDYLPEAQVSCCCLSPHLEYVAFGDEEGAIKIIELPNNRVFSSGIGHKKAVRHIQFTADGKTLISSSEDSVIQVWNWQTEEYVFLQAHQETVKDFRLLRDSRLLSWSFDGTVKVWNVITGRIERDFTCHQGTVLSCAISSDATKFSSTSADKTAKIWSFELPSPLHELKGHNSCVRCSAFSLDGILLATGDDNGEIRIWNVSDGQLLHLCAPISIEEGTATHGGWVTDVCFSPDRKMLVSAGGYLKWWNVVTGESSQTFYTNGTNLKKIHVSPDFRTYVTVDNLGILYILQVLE

[2] = biological target: T2, overexpressed rat Apaf1 (OE-Apaf1) (rat) (UniProt Q9EPV5); assay: as above
T2 sequence: T1 sequence

Which binding [1] does the source give for “cytochrome c (Cycs) (from UniProt P62898 1-105)” here?
Its binding is “binds”.

What about the binding [2] of the same substance?
Its binding is “binds”.
